Measurements: publication PMC6888004 (International Journal of Molecular Sciences, 2019)

Experiment: general procedure: peptide synthesis; COMU/NMM (conjugation)
Settings: whole synthesis, scale 150 mg resin

With [D-Lys6(crizotinib*)]-GnRH-I the isolated mass was 33 mg.
